Measurements from “University of Dundee, Small-Polar-MMV Screening Library” (2021), ChEMBL document CHEMBL3988442.

Mtb heat-shock: 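Assay on Mycobacterium tuberculosis, filed only as a heat shock assay from Cornell; the read-out is not stated. The concentration is filed as 10 mM, unlikely as a test dose, so the dose is not known. Higher reads as stronger inhibition (inferred: compounds with an IC50 in retests scored well above the rest). About 69,000 compounds were tested under these conditions; 1.4% (about 930) showed 50% or more at least once.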
Mtb growth Cornell: 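Whole-cell assay for inhibitors of Mycobacterium tuberculosis growth, labelled Cornell in the record; the read-out is not stated. The concentration is filed as 10 mM, unlikely as a test dose, so the dose is not known. Higher means stronger inhibition (inferred from two other growth screens of the library). About 53,000 compounds were tested under these conditions; 1.7% (about 900) showed 50% or more at least once.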

The filed quantity is “Percent Effect” (%).
The controls that fix the scale are not given in the record; negative values are as filed.
This is an unselected part of the compounds tested.
A dash means the value is not listed here; it may have been measured.

| Compound | Mtb heat-shock | Mtb growth Cornell |
|---|---|---|
| `Cc1noc(C(C)Nc2ccc3oc(C)nc3c2)n1` (stereo not shown) | 29.95% | - |
| `CC(=O)NC1CCN(c2cc(C3CCNCC3)ccn2)CC1.Cl.Cl` | -20.59% | -6.886% |
| `C[C@@H]1CN(C(=O)c2cn(CCN3CCCCC3)nn2)C[C@H](C)O1` | -30.78% | - |
| `CCCS(=O)(=O)N1CCC(Nc2c(F)cc(C#N)cc2F)CC1` | 6.331% | 4.858% |
| `Cc1nc(CN(C)C2CCN(Cc3cccc4cccnc34)C2)no1` (stereo not shown) | 19.87% | -30.13% |
| `COCC(=O)N1CCC2(CCCN(Cc3cnn(C)c3)C2)C1` (stereo not shown) | 11.03% | 41.15% |
| `CC(C)c1cc(C(=O)NCC2CCCN(C(C)C)C2)n(C)n1.Cl` (stereo not shown) | -0.8268% | 4.523% |
| `COc1ccc(CN(CC2CCCO2)C(=O)CN2CCOC2=O)cc1` (stereo not shown) | 8.275% | 24.06% |
| `CC(O)CCN(C)C(=O)Nc1cc(F)cc(Br)c1` (stereo not shown) | 8.192% | 23% |
| `CN(Cc1ccsc1)C(=O)CNC(=O)N1CCc2ccccc2C1` | 5.965% | 5.866% |
| `CC(C)(Oc1ccc2c(c1)CCCC2=O)C(=O)NCc1ccco1` | -3.046% | 39.7% |
| `C1CCC(CN2Cc3nnn(CC4CC4)c3C(COCC3CC3)C2)C1.O=C(O)C(F)(F)F` (stereo not shown) | 40.48% | -2.238% |
| `Cc1c(Br)c(C(F)(F)F)nn1C(C)C(=O)O` (stereo not shown) | -11.79% | 18.2% |
| `Cc1c(C(=O)N2CCS(=O)(=O)CC2)nnn1-c1ccc2ncccc2c1` | -10.82% | 4.633% |
| `COC(=O)CCC(=O)N1CCc2[nH]nc(-c3ccc4c(c3)OCO4)c2C1` | 1.692% | 11.04% |
| `C[C@@H]1CN(C(=O)C2(Cn3cccn3)CC2)CC[C@@]1(O)C1CCOCC1` | 4.018% | 26.61% |
| `CC(=O)N1CCC(c2cc3c(ncn3C)c(-c3cnn(C)c3)n2)CC1` | 7.29% | 18.74% |
| `CCn1cc(CNc2ccc3nccnc3c2)cn1` | 7.335% | - |
| `[H][C@@]12CS(=O)(=O)C[C@]1([H])N(C(=O)C1CCCC1)CCN2Cc1ccncc1` | -8.609% | -18.69% |
| `Cc1ccc(CNC(=O)Cc2c(C)nc3c(c2C)c(=O)[nH]n3C)cc1` | 3.279% | - |
| `[H][C@]12CC(COCC)C[C@]1([H])N(C(=O)c1ccc[nH]1)CCO2` (stereo partly shown) | 0.02136% | 32.27% |
| `Cc1nsc(N2CCc3sccc3C2)n1` | 11.22% | 21.18% |
| `CSCCC(=O)N1C[C@@H](C)[C@](O)(C(C)C)C1` | 8.158% | -13.59% |
| `Cc1cc(NC(=O)c2ccc(N3CCOCC3)c(F)c2)[nH]n1` | 4.259% | 32.67% |
| `O=C(O)c1cc(/C=C/c2ccccc2)ncn1` | -25.85% | 65.58% |
| `Cc1nc(CN2CCCC(NCc3nc4ccccc4s3)C2)no1` (stereo not shown) | -22.34% | 2.403% |
| `NC(=O)CC1CCCN(C(=O)NCC2(c3cccs3)CCCC2)C1` (stereo not shown) | 2.134% | 2.951% |
| `O=S(=O)(c1ccc(-c2nc3c([nH]2)CCNC3)cc1)N1CCCC1` | -16.69% | 30.94% |
| `CN(C)Cc1ccccc1CN(C)C(=O)c1ccoc1` | 1.949% | 5.672% |
| `Cc1nc(C)c(CNCC2CCCn3ccnc32)s1` (stereo not shown) | -48.62% | 0.2887% |
| `Cc1c(S(=O)(=O)N2CCCCC2c2nnc(-c3cccs3)o2)cnn1C` (stereo not shown) | -6.346% | 0.2911% |
| `COc1cccc(C2SCC(=O)Nc3ccsc32)c1OC` (stereo not shown) | 18.72% | 25.58% |
| `O=C(NCc1cccs1)C1CN(C(=O)c2cccs2)CC12CCOCC2` (stereo not shown) | 0.5305% | 33.85% |
| `CC(C)N(C)CC(=O)NCC(O)c1cc2ccccc2s1` (stereo not shown) | -3.264% | - |
| `COc1c(C2CCCN2C(=O)c2c[nH]c3ncccc23)c(C)nn1C` (stereo not shown) | 5.965% | 12.34% |
| `CN(C)S(=O)(=O)N1CCN(CC2CCOc3ccccc3C2)CC1` (stereo not shown) | -23.48% | 17.57% |
| `CC(C)(NS(C)(=O)=O)c1nc(-c2ccncc2)no1` | -9.502% | -13.25% |
| `Cc1ccccc1OCC1CCCN(C(=O)CNC(=O)N(C)C)C1` (stereo not shown) | -47.33% | -22.26% |
| `Cc1cnn(C2CN(Cc3noc(C4CC4)n3)C2)c1` | 9.159% | - |
| `COc1cc(CN(C)C(=O)NCCC(=O)NC2CCCC2)ccc1SC` | -15.34% | - |
| `CCc1cccc(N2CCC(NC(=O)c3ccoc3C)CC2)c1` | -3.285% | 22.56% |
| `Cc1ccsc1-c1nccn1CCS(C)(=O)=O` | 10.2% | -64.47% |
| `CCOCc1ncn2c1CN(C(=O)Nc1ccccc1CC)CC2` | -14.51% | - |
| `O=C(NCCc1noc(C2CCCO2)n1)c1cn2ccsc2n1` (stereo not shown) | 12.43% | -55.08% |
| `CSCC(CCO)NC(=O)Nc1cc(F)ccc1C` (stereo not shown) | 11.29% | 2.282% |
| `CCC(CO)N(C/C(C)=C/c1ccco1)Cc1ccsc1` (stereo not shown) | -22.41% | 43.69% |
| `CCN(Cc1ccco1)C(C)c1nc(C)no1` (stereo not shown) | -3.413% | -61.19% |
| `CSc1ccc(C(CNC(C)=O)N2CCc3sccc3C2)cc1` (stereo not shown) | -21.28% | - |
| `CCCN1CCC(N2CCOC(Cc3cccc(OC)c3)C2)CC1` (stereo not shown) | -28.1% | 0.339% |
| `Cc1ccc(CN2CCC3(CC2)CC(CC(=O)NC(C)C)CO3)s1.O=C(O)C(F)(F)F` (stereo not shown) | -3.171% | 2.246% |
| `N[C@@H]1CCN(Cc2cc(-c3ccccc3OC(F)(F)F)no2)C[C@H]1O` | 13.96% | 7.285% |
| `COCC(C)NC(=O)NCCc1cccc(OC)c1O` (stereo not shown) | -6.832% | -5.23% |
| `CCc1nc2c(c(NCc3nc(-c4cccnc4)no3)n1)CCNCC2` | -18.85% | - |
| `O=C(O)Cn1nc(-c2ccccc2F)ccc1=O` | 2.752% | 3.999% |
| `Cc1nc(O)ccc1C(=O)NCc1ncoc1C` | -0.006862% | 0.6883% |
| `CC(C)OCCCN(CC(=O)N1CCNCC1)C(=O)c1ccc(F)cc1.O=C(O)C(F)(F)F` | -11.38% | 13.48% |
| `CNC(=O)CC1CCN(Cc2nc(-c3cccc(Cl)c3)oc2C)CC1` | 52.75% | - |

6 of the entries, repeated:

{"compound": "COCC(=O)N1CCC2(CCCN(Cc3cnn(C)c3)C2)C1", "stereo": "stereo not shown", "Mtb heat-shock": 11.03, "Mtb growth Cornell": 41.15}
{"compound": "COc1ccc(CN(CC2CCCO2)C(=O)CN2CCOC2=O)cc1", "stereo": "stereo not shown", "Mtb heat-shock": 8.275, "Mtb growth Cornell": 24.06}
{"compound": "O=C(O)Cn1nc(-c2ccccc2F)ccc1=O", "Mtb heat-shock": 2.752, "Mtb growth Cornell": 3.999}
{"compound": "C[C@@H]1CN(C(=O)C2(Cn3cccn3)CC2)CC[C@@]1(O)C1CCOCC1", "Mtb heat-shock": 4.018, "Mtb growth Cornell": 26.61}
{"compound": "Cc1nc(C)c(CNCC2CCCn3ccnc32)s1", "stereo": "stereo not shown", "Mtb heat-shock": -48.62, "Mtb growth Cornell": 0.2887}
{"compound": "CSCCC(=O)N1C[C@@H](C)[C@](O)(C(C)C)C1", "Mtb heat-shock": 8.158, "Mtb growth Cornell": -13.59}